The record followed here is patent publication US20190209704A1 (IGENICA BIOTHERAPEUTICS, INC., priority 2014, published 2019).

This series in a line: general procedure: Fmoc solid-phase peptide synthesis; Fmoc-phenylalanine-2-chlorotrityl resin (0.6 mmol/gram); HATU / N-methyl morpholine. To be noted: conjugation step.

For the substance “(S)-2-((2R,3R)-3-((S)-1-((3R,4S,5S)-4-((S)-2-((S)-2-(6-(3-(4-cyanophenoxy)-2,5-dioxo-2,5-dihydro-1H-pyrrol-1-yl)-N-methylhexanamido)-3-methylbutanamido)-N,3-dimethylbutanamido)-3-methoxy-5-methylheptanoyl)pyrrolidin-2-yl)-3-methoxy-2-methylpropanamido)-3-phenylpropanoic acid”, the conjugation yield turned out to be 63%.
For the substance CPM(C6)-Val-Ala-PAB-MMAE, the conjugation yield amounted to 15%.
